{"sequences": {"note": "The chains behind the UniProt entries cited, without tags or fusion partners.", "UniProt Q04206, whole entry": "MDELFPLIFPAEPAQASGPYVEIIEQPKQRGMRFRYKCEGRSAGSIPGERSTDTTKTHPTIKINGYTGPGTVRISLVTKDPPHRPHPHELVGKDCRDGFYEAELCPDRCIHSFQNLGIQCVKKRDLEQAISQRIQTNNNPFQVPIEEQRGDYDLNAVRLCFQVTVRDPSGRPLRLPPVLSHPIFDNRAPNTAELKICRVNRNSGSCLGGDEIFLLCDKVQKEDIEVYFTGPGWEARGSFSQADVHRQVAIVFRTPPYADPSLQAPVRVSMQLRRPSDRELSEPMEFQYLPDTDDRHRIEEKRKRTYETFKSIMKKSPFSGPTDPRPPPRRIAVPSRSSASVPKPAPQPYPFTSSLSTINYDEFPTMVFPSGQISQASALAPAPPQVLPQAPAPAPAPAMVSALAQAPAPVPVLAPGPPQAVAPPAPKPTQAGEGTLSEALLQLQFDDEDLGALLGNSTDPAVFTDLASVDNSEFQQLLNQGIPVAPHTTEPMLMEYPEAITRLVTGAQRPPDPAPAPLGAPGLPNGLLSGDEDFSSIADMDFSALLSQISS"}, "source": "patent US20090143319", "molecular_target": "NF-kB p65 (RelA) (UniProt Q04206)", "test": "competition with a labelled probe", "settings": "protein in an extract, variant of SEQ-I", "note": "The exact form of at least one protein or probe is not confirmed. Results from cells or extracts need not show a direct contact. The direction of at least one scale is not stated here."}
{"sequence": "CCTTGAGGGGATTTCCCCCC [SEQ-42]", "values": [{"measurement": "binding signal (IC50 ratio to SEQ-x)", "setting": "dAOMe (-): C-C-T-T-G-A-G-GGGATTTCCC-C-C-C / 3'-G-G-A-A-C-U-C-CCCTAAAGGG-G-G-G", "value": "> 2.93"}]}
{"sequence": "CCUTGAGGGGATTTCCCCCC [SEQ-10]", "values": [{"measurement": "binding signal (IC50 ratio to SEQ-x)", "setting": "2'-OMe at CCU and last CCC of sense, GGA (3' end) and GGG (5' end) of antisense", "value": 1.72}]}
{"sequence": "CCUUGAGGGGATTTCCCCCC [SEQ-11]", "values": [{"measurement": "binding signal (IC50 ratio to SEQ-x)", "setting": "2'-OMe at CCUUGAG and last CCC of sense, 3'-GGAACUC and 5'-end GGG of antisense", "value": "> 4.18"}]}
